In test [1] the target is 3D7 PfAMA1 (residue 104-442) with His tag not cleaved, for SEC and SAXS (Plasmodium falciparum 3D7) (UniProt Q7KQK5). Description: SAXS; both purified.
Test [2] has the same target. Description: SEC; both purified. On the technique in general: Size exclusion chromatography separates by hydrodynamic size, large species first.
Test [3] concerns the target Domain I+II of 3D7 PfAMA1 (residue 104-442), immobilised for SPR (Plasmodium falciparum 3D7) (UniProt Q7KQK5). The test is described as follows: SPR; both purified. A general note: SPR reads the build-up and loss of mass on a sensor chip optically.

No constants are given. Whether binding was seen depends on the method and setting.

As for “3D7 PfAMA1 (residue 104-442) with His tag not cleaved, for SEC and SAXS (from UniProt Q7KQK5 104-442) (domain or fragment)”, the binding entry in test [1] is “no binding”; in test [2], “no binding (tested: 200 µM)”.

With VFAEFLPLFSK (N-terminally acetylated; C-terminally amidated) [R1_(1-11)], the binding result in test [3] is listed as “no binding (tested: 10 µM)”.

In the case of FLPLFSKFGS (N-terminally acetylated; C-terminally amidated) [R1_(5-14)], the binding result in test [3] is recorded as “no binding (tested: 10 µM)”.

In the case of FLPLFSKFGSAM (N-terminally acetylated; C-terminally amidated) [R1_(5-16) R15A], in test [3], the binding entry is listed as “no binding (tested: >100 µM)”.

Consider KFGSRMHILK (N-terminally acetylated; C-terminally amidated) [R1_(11-20)], for which the binding entry in test [3] is reported as “no binding (tested: 10 µM)”.
